According to PubChem BioAssay AID504834 (National Center for Advancing Translational Sciences (NCATS), 2011):
Among all 320,000 compounds or so, about 22,000 (6.9%) were called active. Inconclusive results, whose numbers are uncertain, are shown with a selection of clear calls. Calls follow the shape of the dose curve; as a rule, active = well fitted inhibition curve with a large enough effect; inconclusive = small, poorly fitted or top-dose-only effect, or another doubt; inactive = no such curve, though single readings can be large or run the other way. Potencies of inconclusive entries are doubtful fits and often do not repeat.

experiment: Primary qHTS for delayed death inhibitors of the malarial parasite plastid, 96 hour incubation; details: P. falciparum luciferase reporter growth; series mostly up to 28.7 µM; activity change, negative = inhibition: at the top concentration
How it was run: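 Parasite growth measured via integrated firefly luciferase reporter in P. falciparum. Infected erythrocytes at 2% hematocrit, 0.05% parasitemia final were treated 96 hours at 37 C under 5% CO2, and luminescence was read.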
% is scaled to controls: 0 for no effect and ±100 for the full control effect; potency is read from the fitted curve at half-maximal effect.

| SMILES | Potency | activity change, negative = inhibition |
| --- | --- | --- |
| O=C(O)Cc1csc(Nc2cccc(Cl)c2)n1 | active: 13.1 µM | – |
| O=C(Cn1cnc2c(nnn2Cc2ccc(F)cc2)c1=O)NCc1ccc2c(c1)OCO2 | inconclusive: 10.4 µM [inhibitor, single point] | – |
| O=C(C1CCCN(CCCc2ccccc2)C1)N1CCCCC1 (stereo unspecified) | – | inactive: 35.6% |
| O=C(Nc1ccc2c(c1)OCCO2)c1cccc(Cl)c1Cl | – | inactive: 142% |
| O=C(NC(=S)Nc1ccc2oc(-c3cccnc3)nc2c1)c1cccc(Cl)c1 | – | inactive: -18.9% |
| COCCn1c(-c2ccccc2)cnc1SCC(=O)Nc1cccc2ccccc12 | active: 13.1 µM | – |
| CC(=O)c1ccc(NC(=O)CCc2nc3sc4c(c3c(=O)[nH]2)CCCC4)cc1 | inconclusive: 3.7 µM [inhibitor, full curve] | – |
| CCc1ccc(OCC(=O)NC(NC(=S)Nc2ccccc2C)C(Cl)(Cl)Cl)cc1 (stereo unspecified) | inconclusive: 18.5 µM [inhibitor, single point] | – |
| Cn1c2c(c3ccccc31)CCN1CCC[C@]21c1ccccc1 | active: 8.28 µM | – |
| O=C(CN1C(=O)NC2(CCOc3ccccc32)C1=O)Nc1ccc(F)c(F)c1F (stereo unspecified) | inconclusive: 0.0026 µM [inhibitor, full curve, poor fit] | – |
| ClCc1csc(-c2ccccc2Cl)n1 | – | inactive: 15.7% |
| CC(C)[C@H](NC(=O)c1c(F)cccc1F)C(=O)Nc1cccc(Br)c1 | – | inactive: -9.92% |
| COc1ccc(C2CC(c3ccc4ccccc4c3)=NN2C(=O)CN2C(=O)CCC2=O)cc1 (stereo unspecified) | inconclusive: 11.7 µM [inhibitor, single point] | – |
| CC(C(N)=O)N1C(=O)NC2(CCCc3ccccc32)C1=O (stereo unspecified) | – | inactive: 23.1% |
| Cn1c(=O)oc2cc(S(=O)(=O)NCCC(=O)NC3CCCC3)ccc21 | inconclusive: 4.15 µM [inhibitor, partial curve, poor fit] | – |
| c1ccc2c(c1)nc(-c1ccncc1)n2CCNc1nc(CN2CCCCC2)cs1 | – | inactive: 57.3% |
| O=C(c1ccc(N2CC3CC(C2)c2cccc(=O)n2C3)c([N+](=O)[O-])c1)N1CCCC1 (stereo unspecified) | inconclusive: 18.5 µM [inhibitor, single point] | – |
| Nn1c(Cc2cccc3ccccc23)nnc1SCC(=O)N1CC(=O)Nc2ccccc21 | – | inactive: -8.39% |
| Cc1ccc(S(=O)(=O)/N=C(\N)Nc2nc(C)c3ccc(C)cc3n2)cc1 | inconclusive: 18.5 µM [inhibitor, single point] | – |
| COc1ccccc1NC(=O)CC(NC1CCCCC1)C(=O)O (stereo unspecified) | inconclusive: 18.5 µM [inhibitor, single point] | – |
| CSCCC(NC(=O)c1ccccc1Cl)C(=O)NCCOc1ccccc1 (stereo unspecified) | inconclusive: 13.1 µM [inhibitor, partial curve] | – |
| COc1cc(C2NC(=S)NC3=C2CCc2ccccc23)cc(OC)c1OC (stereo unspecified) | inconclusive: 4.15 µM [inhibitor, partial curve, poor fit] | – |
| CC1(C)CC(=O)C2=C(C1)Nc1ccccc1NC2c1ccccn1 (stereo unspecified) | – | inactive: 39.6% |

Of the compounds above, these have an aryl thioether with sulfur outside any ring:

| SMILES | Potency | activity change, negative = inhibition |
| --- | --- | --- |
| COCCn1c(-c2ccccc2)cnc1SCC(=O)Nc1cccc2ccccc12 | active: 13.1 µM | – |
| Nn1c(Cc2cccc3ccccc23)nnc1SCC(=O)N1CC(=O)Nc2ccccc21 | – | inactive: -8.39% |

Reprinted at random: two compounds from above

| SMILES | Potency | activity change, negative = inhibition |
| --- | --- | --- |
| CSCCC(NC(=O)c1ccccc1Cl)C(=O)NCCOc1ccccc1 (stereo unspecified) | inconclusive: 13.1 µM [inhibitor, partial curve] | – |
| CC(C)[C@H](NC(=O)c1c(F)cccc1F)C(=O)Nc1cccc(Br)c1 | – | inactive: -9.92% |

(more compounds)

| SMILES | Potency | activity change, negative = inhibition |
| --- | --- | --- |
| CC1(C)CC(=O)C=C(Nc2ccccc2)C1 | – | inactive: 0% |
| CC(/C=C/C1(O)C(C)CC(O)CC1(C)C)OC1OC(CO)C(O)C(O)C1O (stereo unspecified) | inconclusive: 4.15 µM [inhibitor, single point] | – |
| CCN1C=CC(=C2C(=O)c3ccccc3C2=O)C=C1 | inconclusive: 1.65 µM [inhibitor, partial curve, poor fit] | – |
| COc1cc(OC)cc(C(=O)Nc2nc(CC(=O)NCc3ccc(F)cc3)cs2)c1 | active: 11.7 µM | – |
| CCCCOc1cccc(NC(=O)CSc2nccn2C)c1 | – | inactive: -12.6% |
| COc1ccccc1C(=O)NNC(=O)c1ccc(Br)o1 | – | inactive: -1.84% |
| Cc1cc(C)cc(NC(=O)N2CCCN(Cc3c(F)cccc3Cl)CC2)c1 | inconclusive: 9.28 µM [inhibitor, single point] | – |
| CC(C)C(=O)Nc1ccc(S(=O)(=O)N2CCC(c3nc4ccccc4[nH]3)CC2)cc1 | inconclusive: 0.415 µM [inhibitor, full curve, poor fit] | – |
| COc1cc2c(cc1OC)C1=C(C#N)CCC(=NC(=O)c3ccc(Cl)cc3)N1CC2 | inconclusive: 11.7 µM [inhibitor, single point] | – |
| Fc1c(F)c(F)c(N=Cc2ccc3ncccc3c2)c(F)c1F | – | inactive: 23.6% |
| CC(NS(=O)(=O)c1ccc(Br)cc1)C(c1cccs1)N1CCN(C)CC1 (stereo unspecified) | inconclusive: 11.7 µM [inhibitor, single point] | – |
| O=Cc1cn(CCC(=O)O)nc1-c1cc2ccccc2o1 | inconclusive: 14.7 µM [inhibitor, single point] | – |
| O=C(Cc1c(Cl)cccc1Cl)Nc1ccncc1Cl | inconclusive: 18.5 µM [inhibitor, single point] | – |
| Cc1cnc([N+](=O)[O-])n1CCOC(=O)NC(=O)c1cccc(F)c1 | inconclusive: 1.04 µM [inhibitor, partial curve, poor fit] | – |
| CCOC(=O)c1c(NC(=O)CNCCO)sc(C)c1C | inconclusive: 2.08 µM [inhibitor, partial curve, poor fit] | – |
| COc1cc(-c2nc(CCNC(=O)c3ccco3)cs2)cc(OC)c1OC | active: 10.4 µM | – |
| O=[N+]([O-])/C(C(Cl)=C(Cl)Cl)=C1\Nc2ccccc2O1 | – | inactive: 47.9% |
| COc1ccccc1-n1c(SCC(=O)Nc2cccc(C)c2)nc2c(c1=O)SCC2 | active: 10.4 µM | – |
| COc1ccc(OC)c(CNC(=O)Cn2nc(C)c3c(C)n(-c4ccc(C)cc4)nc3c2=O)c1 | inconclusive: 11.7 µM [inhibitor, partial curve] | – |
| COc1cc([N+](=O)[O-])cc2sc(NC(C)=O)nc12 | – | inactive: 81% |
| COc1ccc(-c2ccc(N(C)C)cc2)cc1[C@H]1[C@H]2C=CC[C@@H](C)[C@@H]2C(=O)N1Cc1ccccc1 | inconclusive: 11.7 µM [inhibitor, partial curve, poor fit] | – |
| COc1ccccc1NC(=O)C1CC(=O)OC1c1ccccc1 (stereo unspecified) | inconclusive: 18.5 µM [inhibitor, single point] | – |
| CCOCCCNC(=O)C1CCC(CNS(=O)(=O)c2ccc(Cl)cc2)CC1 (stereo unspecified) | inconclusive: 18.5 µM [inhibitor, single point] | – |
